Experimental data: article PMC11551741 (Nucleic Acids Research, 2024)

Target: T1, SLF1 tBRCT (Homo sapiens) (UniProt Q9BQI6)
T1 sequence (looked up): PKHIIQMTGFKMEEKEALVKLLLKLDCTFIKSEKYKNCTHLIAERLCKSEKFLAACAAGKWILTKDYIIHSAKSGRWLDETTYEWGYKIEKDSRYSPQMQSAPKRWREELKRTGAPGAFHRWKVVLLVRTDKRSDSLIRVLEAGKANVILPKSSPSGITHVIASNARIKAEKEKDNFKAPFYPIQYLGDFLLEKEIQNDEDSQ
Assay: competition EMSA
Conditions: 0.5 uM tBRCT, partial competition by RAD18 peptide S(pS)S(pS)DI; DNA EMSA: 40 mM Tris pH 7.5, 100 mM KCl, 0.2 mM DTT, 10% glycerol, 20 ug/ml BSA, 10 nM DNA, 4 C 30 min; recombinant protein; residues 6-208; label: 5' 6-FAM on strand 1

“TAAATGCCAATGCTGCTGATACGTACTCGGACTGATTCGGAACTGTAACG (double strand) [50 bp DNA, 6-FAM]”: binds more weakly.

Construct, isoform or probe ends are uncertain for at least one entry. A weaker result is weaker than the reference pair of the same experiment. Where a protein sequence is shown, tags need not be part of it.
